The text below walks through data of PMC9098449.

The exact form of at least one protein or probe is not confirmed. No signal at the amounts used counts as a negative.

This data set concerns E. coli RNA polymerase (his-tagged), sigma70 used for initiation (Escherichia coli). The data set is described as follows: pull-down (Ni-NTA, transcript retention after wash). The settings on record: 10 mM Mg2+, 700 mM KCl wash, Transcription: 20 mM Tris-HCl pH 8.0, 20 mM MgCl2, 20 mM NaCl, 0.1 mM EDTA, 37 °C, Ni-NTA wash: 40 mM Tris pH 8.0, 10 mM MgCl2, 700 mM KCl, recombinant protein, letters put together from the description.

For “GGGCACCCCAGGCTTTACACTTTATGCTTCCGGCTCGTATAATGTGTGGGTTCAAACCTCAACGGGGTGCCACGCGTACGCGTGCGCTGAGAAAATACCCGTCGAACCTGATCCGGATAACGCCGGCGAAGGGATTTGAGGCTCCT (double strand)”, the binding result (NPOM-stalled elongation complex, NPOM-caged dT at position 8 of strand 2 (opposite A90 of transcript numbering), label: nascent RNA 32P-labelled) is recorded as “binds”.

In the case of “GUUCAAACCUCAACGGGGUGCCACGCGUACGCGUGCGCUGAGAAAAUACCCGUCGAACCUGAUCCGGAUAACGCCGGCGAAGGGAUUUGAGGCUCCU [tbpA +5 run-off transcript (no roadblock)]”, where the note is “run-off control without roadblock, label: 32P”, the binding result is recorded as “no binding”.
